## Library screen at single concentrations

The chains behind the UniProt entries cited, without tags or fusion partners. Residues count along the entry.
UniProt A4I591, 1-473: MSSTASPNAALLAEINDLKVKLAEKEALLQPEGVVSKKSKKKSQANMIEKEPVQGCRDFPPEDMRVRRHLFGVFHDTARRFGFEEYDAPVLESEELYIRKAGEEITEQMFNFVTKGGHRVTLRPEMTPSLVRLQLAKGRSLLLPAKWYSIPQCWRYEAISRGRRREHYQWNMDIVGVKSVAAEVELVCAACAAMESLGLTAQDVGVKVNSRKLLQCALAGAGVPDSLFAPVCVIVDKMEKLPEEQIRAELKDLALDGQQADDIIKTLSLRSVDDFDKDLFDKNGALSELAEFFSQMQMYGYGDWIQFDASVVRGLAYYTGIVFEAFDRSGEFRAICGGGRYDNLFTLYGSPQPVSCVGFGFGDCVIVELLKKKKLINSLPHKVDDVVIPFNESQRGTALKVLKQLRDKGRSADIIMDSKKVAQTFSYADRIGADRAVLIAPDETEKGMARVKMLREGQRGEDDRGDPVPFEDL
UniProt P9WFT3, whole entry: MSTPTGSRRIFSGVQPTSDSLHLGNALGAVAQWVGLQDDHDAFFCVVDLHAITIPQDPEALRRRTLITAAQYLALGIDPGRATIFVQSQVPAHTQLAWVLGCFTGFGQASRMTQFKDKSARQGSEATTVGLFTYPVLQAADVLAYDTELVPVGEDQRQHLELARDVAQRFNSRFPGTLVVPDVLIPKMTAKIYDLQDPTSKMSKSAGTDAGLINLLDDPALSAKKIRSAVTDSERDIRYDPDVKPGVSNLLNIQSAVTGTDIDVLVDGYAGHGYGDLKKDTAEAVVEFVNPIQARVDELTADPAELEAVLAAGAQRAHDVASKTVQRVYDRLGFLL

The values are deposited in ChEMBL (CHEMBL3988442, “University of Dundee, Small-Polar-MMV Screening Library” (2021)).

LiHisRS: 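Enzyme assay of histidyl-tRNA synthetase; the read-out is not stated. Target: Histidine-tRNA ligase, Leishmania infantum (UniProt A4I591). Concentration: 30 µM. Higher reads as stronger inhibition (inferred: compounds with an IC50 in retests scored well above the rest). The assay is labelled LdHisRS but filed under L. infantum. Of about 69,000 compounds tested this way, about 410 (0.6%) reached 50% or more in at least one test.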
T. brucei: 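Whole-parasite assay of Trypanosoma brucei over 72 hours; the read-out is not stated. Concentration: 30 µM. Higher reads as stronger inhibition (inferred: compounds with an IC50 in retests scored well above the rest). Values scatter widely below zero; nearly all retest evidence comes from the higher of the two concentrations used. About 64,000 compounds were tested under these conditions; 1.5% (about 940) showed 50% or more at least once.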
MtTrpRS: 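Enzyme assay of tryptophanyl-tRNA synthetase; the read-out is not stated. Target: Tryptophan-tRNA ligase, Mycobacterium tuberculosis (UniProt P9WFT3). Concentration: 10 µM. Direction is not recorded; retested compounds ran higher, which suggests that high means inhibition. Of about 65,000 compounds tested this way, about 64 (0.098%) reached 50% or more in at least one test.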

Results are given as percent effect.
The controls that fix the scale are not given in the record; negative values are as filed.
The compounds are a random part of those screened.

For Cc1ccc(F)c(C(=O)N2C[C@@H](C(=O)O)[C@H](c3ccccc3)C2)c1Cl the result was LiHisRS: 10.45%; T. brucei: -8.824%; MtTrpRS: 2.639%.
For O=C(O)C(F)(F)F.O=C(O)C(F)(F)F.O=C(O)C(F)(F)F.[H][C@@]12OCCN(Cc3cccnc3)[C@@]1([H])CC[C@H]2OCCN1CCCC1 the result was T. brucei: -0.9211%.
For O=C(O)C(F)(F)F.[H][C@@]12CCN(Cc3scnc3C)C[C@]1(C(=O)NC(C)C)CCO2 the result was T. brucei: -56.99%.
For O=C(O)C(F)(F)F.O=C(O)C(F)(F)F.[H][C@@]12COC[C@]1(COCC1CC1)CN(Cc1cccnc1OC)C2 the result was T. brucei: -22.79%.
For COc1cccc(CN2CCC3(CC2)CCN(C(=O)[C@@H]2CCCO2)C3)c1 the result was LiHisRS: 19.27%; MtTrpRS: -3.483%.
For CC(C)[C@@H]1CN(CCOc2ccc(Cl)cc2)C[C@H]1NS(C)(=O)=O the result was LiHisRS: 15.38%; T. brucei: 10.13%; MtTrpRS: -6.238%.
For CCOc1ncccc1C(=O)N1CCCC1Cn1cc(C)cn1 (stereo unspecified) the result was LiHisRS: 10.53%; T. brucei: -14.08%; MtTrpRS: -6.2%.
For CC(c1nc(C2CC2)no1)N1CCN(CCN2CCCC2=O)CC1 (stereo unspecified) the result was LiHisRS: 10.71%; T. brucei: -1.912%; MtTrpRS: -7.045%.
For CCOC1CCCN(C(=O)c2[nH]nc(C)c2Br)C1 (stereo unspecified) the result was LiHisRS: 2.857%; T. brucei: -11.88%; MtTrpRS: 2.252%.
For Cc1ccccc1COCCOCn1c(C)cc(=O)[nH]c1=O the result was LiHisRS: 4.348%; T. brucei: -43.21%; MtTrpRS: -5.466%.
For COCCC(=O)N1CCC2(CC1)CC(c1ccccc1)CN(C1CC1)C2 (stereo unspecified) the result was LiHisRS: 16.67%; T. brucei: -7.63%; MtTrpRS: 1.944%.
For CCC1CN(C(=O)c2cccnc2O)CCC(=O)N1Cc1ccccc1 (stereo unspecified) the result was LiHisRS: 12.9%; T. brucei: -44.54%; MtTrpRS: 0.404%.
For Cc1noc(C(C)N2CCN(CCC(=O)N3CCCCC3)CC2)n1 (stereo unspecified) the result was LiHisRS: 17.14%; T. brucei: 23.88%; MtTrpRS: -3.284%.
For CCCS(=O)(=O)N1CCC(NCc2c(C)nn(C)c2OC)CC1 the result was LiHisRS: 22.22%; T. brucei: 8.694%; MtTrpRS: -4.374%.
For Cn1cc(N2CCCC(Nc3ccc4c(c3)CCC(=O)N4)C2=O)cn1 (stereo unspecified) the result was LiHisRS: 30.14%; T. brucei: 14.68%; MtTrpRS: -2.677%.
For CN(Cc1cnn(C)c1)C(=O)Cn1c(CS(C)(=O)=O)nc2ccccc21 the result was LiHisRS: 20%; T. brucei: 15.73%; MtTrpRS: -4.131%.
For COCC1c2c(cnn2C)CCN1Cc1ccc(F)cc1 (stereo unspecified) the result was LiHisRS: 11.54%; MtTrpRS: -0.3752%.
For COc1c(C2CCCN2C(=O)c2ccc(Cl)o2)c(C)nn1C (stereo unspecified) the result was LiHisRS: 21.15%; T. brucei: 29.86%; MtTrpRS: 0%.
For [H][C@@]12CS(=O)(=O)C[C@]1([H])NCCN2c1ccnc(N(C)Cc2cccnc2)n1 the result was T. brucei: -3.111%.
For Cc1ccc(CN2CC[C@@H](O)[C@@H]2Cc2ccccc2)o1 the result was LiHisRS: -3.448%; MtTrpRS: 11.54%.
For CCOc1cc(/C=C/c2ncc(C(=O)O)s2)ccc1O the result was LiHisRS: 18.92%; T. brucei: 4.595%; MtTrpRS: -1.072%.
For COC(=O)c1cccc(C(=O)N(CCC#N)CC(C)(C)C)c1 the result was LiHisRS: 7.08%; T. brucei: -59.9%; MtTrpRS: 2.041%.
For Cn1cccc1C(=O)N[C@@H]1CN(Cc2cccs2)[C@@H]2COC[C@@H]21 the result was LiHisRS: 5.714%; MtTrpRS: -3.58%.
For CC(=O)N1CCCn2nc(CNS(=O)(=O)Cc3ccccc3)cc2C1 the result was LiHisRS: 15.58%; T. brucei: 8.248%; MtTrpRS: 3.461%.
For Cc1cc(CN(C)C(=O)NC2CCC(O)CC2)no1 (stereo unspecified) the result was LiHisRS: 0%; T. brucei: 21.2%; MtTrpRS: -1.058%.
For [H][C@@]12OCCN(S(=O)(=O)c3cn(C)cn3)[C@@]1([H])CC[C@H]2OC the result was T. brucei: -6.223%.
For CCN(Cc1ccccc1)c1ncnc2c(C)nn(CC)c12 the result was LiHisRS: 16.67%; T. brucei: -9.587%; MtTrpRS: 3.888%.
For Clc1cccc(C(CNc2ncccn2)N2CCOCC2)c1 (stereo unspecified) the result was LiHisRS: 20.35%; T. brucei: -6.355%; MtTrpRS: -0.7227%.
For CCN1Cc2c(C(=O)NC(C)C(C)C)ncn2-c2ccccc2S1(=O)=O (stereo unspecified) the result was LiHisRS: -11.76%; T. brucei: -7.782%; MtTrpRS: 4.527%.
For COCCN(C)C1COC2(CCN(Cc3cccc(F)c3)CC2)C1.O=C(O)C(F)(F)F.O=C(O)C(F)(F)F (stereo unspecified) the result was T. brucei: -13.55%.
For Cc1occc1C(=O)N1CCC2(CCN(Cc3nccs3)C2)CC1.O=C(O)C(F)(F)F the result was T. brucei: -4.251%.
For CC1c2ccc(F)cc2CCN1C(=O)c1nc(=O)[nH][nH]1 (stereo unspecified) the result was LiHisRS: 5.319%; T. brucei: -31.79%; MtTrpRS: -1.032%.
For CN(C)C(=O)CN1CC=C(c2cnn(Cc3ccccc3)c2)CC1 the result was LiHisRS: 13.99%; T. brucei: 13.03%; MtTrpRS: 3.132%.
For Cc1cc(Cl)ccc1NCc1cnn(C2CCS(=O)(=O)C2)c1 (stereo unspecified) the result was LiHisRS: 20%; T. brucei: -27.1%; MtTrpRS: 0.7224%.
For Cc1ccc(CC(=O)N(C)CC2(O)CCCN(c3ccccn3)C2)s1 (stereo unspecified) the result was LiHisRS: 18%; T. brucei: 11.4%.
For CS(=O)(=O)c1ccc(-c2ccccc2C(=O)O)cc1 the result was LiHisRS: 17.82%; T. brucei: 4.986%.

For reference, 4 entries once more:

{"smiles": "CC(c1nc(C2CC2)no1)N1CCN(CCN2CCCC2=O)CC1", "stereo": "stereo unspecified", "LiHisRS": 10.71, "T. brucei": -1.912, "MtTrpRS": -7.045}
{"smiles": "Cc1ccc(CC(=O)N(C)CC2(O)CCCN(c3ccccn3)C2)s1", "stereo": "stereo unspecified", "LiHisRS": 18, "T. brucei": 11.4}
{"smiles": "CN(Cc1cnn(C)c1)C(=O)Cn1c(CS(C)(=O)=O)nc2ccccc21", "LiHisRS": 20, "T. brucei": 15.73, "MtTrpRS": -4.131}
{"smiles": "CC(=O)N1CCCn2nc(CNS(=O)(=O)Cc3ccccc3)cc2C1", "LiHisRS": 15.58, "T. brucei": 8.248, "MtTrpRS": 3.461}